Experimental data as given in publication doi:10.1101/2023.10.30.564738 (bioRxiv, 2023).
Read-outs that look alike come from different tables or passages of the source. These are yes or no findings as the source states them, for the method shown. In cells and extracts the contact can be indirect. Some binding calls cover weakened binding; strength is not graded here. Sequences can lack the tags named with a protein.

Protein sequences, listed by entry. Tags and fused reporters are not part of them. Lines headed by an entry give the natural chain unless they say otherwise; changes in a name come on top.
UniProt P40460: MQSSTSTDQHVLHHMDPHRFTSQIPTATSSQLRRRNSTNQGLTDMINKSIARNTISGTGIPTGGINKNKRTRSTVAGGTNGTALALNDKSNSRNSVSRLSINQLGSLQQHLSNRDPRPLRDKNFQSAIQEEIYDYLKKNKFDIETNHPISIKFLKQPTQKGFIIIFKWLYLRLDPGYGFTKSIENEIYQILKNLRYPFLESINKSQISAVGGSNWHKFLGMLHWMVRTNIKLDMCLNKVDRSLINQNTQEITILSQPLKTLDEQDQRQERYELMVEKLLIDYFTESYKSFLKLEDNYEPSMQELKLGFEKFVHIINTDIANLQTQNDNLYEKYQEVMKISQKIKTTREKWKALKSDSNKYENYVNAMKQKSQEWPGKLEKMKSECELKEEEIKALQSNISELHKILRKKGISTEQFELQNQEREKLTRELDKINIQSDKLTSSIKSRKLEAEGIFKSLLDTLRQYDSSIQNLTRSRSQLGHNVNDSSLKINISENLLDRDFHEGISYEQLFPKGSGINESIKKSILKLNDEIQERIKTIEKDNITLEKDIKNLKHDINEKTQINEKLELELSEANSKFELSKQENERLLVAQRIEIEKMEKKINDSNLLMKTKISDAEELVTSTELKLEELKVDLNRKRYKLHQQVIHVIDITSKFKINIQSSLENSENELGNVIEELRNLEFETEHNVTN
UniProt P33895: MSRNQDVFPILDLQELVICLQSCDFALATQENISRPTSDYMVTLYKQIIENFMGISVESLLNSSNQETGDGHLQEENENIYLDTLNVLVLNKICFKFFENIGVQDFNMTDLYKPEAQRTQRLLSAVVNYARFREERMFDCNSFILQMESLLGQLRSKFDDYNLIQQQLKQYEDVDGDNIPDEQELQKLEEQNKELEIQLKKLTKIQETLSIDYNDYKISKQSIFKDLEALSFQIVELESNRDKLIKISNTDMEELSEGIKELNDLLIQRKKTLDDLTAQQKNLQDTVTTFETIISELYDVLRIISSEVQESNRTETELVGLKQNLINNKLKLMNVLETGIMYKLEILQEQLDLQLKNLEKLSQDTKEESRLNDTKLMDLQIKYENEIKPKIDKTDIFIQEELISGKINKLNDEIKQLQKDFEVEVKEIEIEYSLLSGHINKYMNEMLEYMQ
UniProt Q04477: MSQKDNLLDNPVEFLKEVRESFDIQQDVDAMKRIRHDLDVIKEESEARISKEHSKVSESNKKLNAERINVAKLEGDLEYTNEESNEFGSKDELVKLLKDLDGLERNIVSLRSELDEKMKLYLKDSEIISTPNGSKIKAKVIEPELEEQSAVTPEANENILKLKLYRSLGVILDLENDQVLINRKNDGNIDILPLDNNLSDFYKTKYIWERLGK
UniProt P40014: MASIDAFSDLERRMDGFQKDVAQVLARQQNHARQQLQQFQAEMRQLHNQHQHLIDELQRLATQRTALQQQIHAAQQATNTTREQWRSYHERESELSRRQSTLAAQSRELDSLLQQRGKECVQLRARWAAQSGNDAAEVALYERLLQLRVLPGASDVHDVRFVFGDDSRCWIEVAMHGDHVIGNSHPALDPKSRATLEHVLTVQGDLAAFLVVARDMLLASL

T1: MBP-Mps1^1–250–8xHis (wild type) (S. cerevisiae) (UniProt P54199)
T1 sequence: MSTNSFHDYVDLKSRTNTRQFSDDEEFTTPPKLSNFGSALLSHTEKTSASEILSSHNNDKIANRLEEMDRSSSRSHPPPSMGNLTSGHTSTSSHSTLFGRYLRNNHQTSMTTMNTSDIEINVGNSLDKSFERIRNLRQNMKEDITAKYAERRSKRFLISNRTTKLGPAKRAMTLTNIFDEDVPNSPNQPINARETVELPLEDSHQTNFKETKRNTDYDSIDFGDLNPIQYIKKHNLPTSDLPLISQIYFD

T2: MBP fusion of Mps1 1–143 (S. cerevisiae) (UniProt P54199)
T2 sequence: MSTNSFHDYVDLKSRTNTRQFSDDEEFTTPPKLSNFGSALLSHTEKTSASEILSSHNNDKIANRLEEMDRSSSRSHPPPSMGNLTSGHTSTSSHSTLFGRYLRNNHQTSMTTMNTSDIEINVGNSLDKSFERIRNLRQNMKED

T3: MBP fusion encompassing Mps1 residues 1–173 (S. cerevisiae) (UniProt P54199)
T3 sequence: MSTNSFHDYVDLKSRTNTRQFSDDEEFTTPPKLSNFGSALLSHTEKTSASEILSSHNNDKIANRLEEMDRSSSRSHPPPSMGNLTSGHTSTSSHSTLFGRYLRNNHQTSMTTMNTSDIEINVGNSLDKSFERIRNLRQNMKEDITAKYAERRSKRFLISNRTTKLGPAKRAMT

T4: MBP-Mps1^1–250, bp (R151D R152D R155D) (S. cerevisiae) (UniProt P54199)
T4 sequence: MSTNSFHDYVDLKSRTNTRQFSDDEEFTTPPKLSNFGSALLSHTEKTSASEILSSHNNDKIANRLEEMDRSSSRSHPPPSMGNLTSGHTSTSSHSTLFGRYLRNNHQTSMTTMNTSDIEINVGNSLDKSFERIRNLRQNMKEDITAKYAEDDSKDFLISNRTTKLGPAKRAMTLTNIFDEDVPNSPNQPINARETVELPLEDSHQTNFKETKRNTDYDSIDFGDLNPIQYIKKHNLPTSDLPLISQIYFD


Key:
[1] = target: T1, MBP-Mps1^1–250–8xHis (wild type) (S. cerevisiae); assay: pull-down
[2] = target: T2, MBP fusion of Mps1 1–143 (S. cerevisiae); assay: pull-down
[3] = target: T3, MBP fusion encompassing Mps1 residues 1–173 (S. cerevisiae); assay: pull-down
[4] = target: T1, MBP-Mps1^1–250–8xHis (wild type) (S. cerevisiae); assay: pull-down; remark: listed apart in the source
[5] = target: T4, MBP-Mps1^1–250, bp (R151D R152D R155D) (S. cerevisiae); assay: pull-down
[6] = target: Ndc80 complex (Ndc80-Flag:Nuf2:Spc24:Spc25) (S. cerevisiae) (UniProt P40460+P33895+Q04477+P40014); assay: co-IP

binding [1] | binding [2] | binding [3] | binding [4] | binding [5] | binding [6] | Molecule
binds | no binding | binds | binds | binds |  | Ndc80 complex (Ndc80-Flag:Nuf2:Spc24:Spc25) (from UniProt P40460 1-691; P33895 1-451; Q04477 1-213; P40014 1-221)
 |  |  |  |  | binds weakly | StrepII-tagged full-length Mps1^hm (F156D L165A) (protein, UniProt P54199 1-764) MSTNSFHDYVDLKSRTNTRQFSDDEEFTTPPKLSNFGSALLSHTEKTSASEILSSHNNDKIANRLEEMDRSSSRSHPPPSMGNLTSGHTSTSSHSTLFGRYLRNNHQTSMTTMNTSDIEINVGNSLDKSFERIRNLRQNMKEDITAKYAERRSKRDLISNRTTKAGPAKRAMTLTNIFDEDVPNSPNQPINARETVELPLEDSHQTNFKETKRNTDYDSIDFGDLNPIQYIKKHNLPTSDLPLISQIYFDKQREENRQAALRKHSSRELLYKSRSSSSSLSSNNLLANKDNSITSNNGSQPRRKVSTGSSSSKSSIEIRRALKENIDTSNNSNFNSPIHKIYKGISRNKDSDSEKREVLRNISINANHADNLLQQENKRLKRSLDDAITNENINSKNLEVFYHRPAPKPPVTKKVEIVEPAKSASLSNNRNIITVNDSQYEKIELLGRGGSSRVYKVKGSGNRVYALKRVSFDAFDDSSIDGFKGEIELLEKLKDQKRVIQLLDYEMGDGLLYLIMECGDHDLSQILNQRSGMPLDFNFVRFYTKEMLLCIKVVHDAGIVHSDLKPANFVLVKGILKIIDFGIANAVPEHTVNIYRETQIGTPNYMAPEALVAMNYTQNSENQHEGNKWKVGRPSDMWSCGCIIYQMIYGKPPYGSFQGQNRLLAIMNPDVKIPFPEHTSNNEKIPKSAIELMKACLYRNPDKRWTVDKVLSSTFLQPFMISGSIMEDLIRNAVRYGSEKPHISQDDLNDVVDTVLRKFADYKI
 |  |  |  |  | binds weakly | StrepII-tagged full-length Mps1^hm+bp (R151D R152D R155D F156D L165A) (protein, UniProt P54199 1-764) MSTNSFHDYVDLKSRTNTRQFSDDEEFTTPPKLSNFGSALLSHTEKTSASEILSSHNNDKIANRLEEMDRSSSRSHPPPSMGNLTSGHTSTSSHSTLFGRYLRNNHQTSMTTMNTSDIEINVGNSLDKSFERIRNLRQNMKEDITAKYAEDDSKDDLISNRTTKAGPAKRAMTLTNIFDEDVPNSPNQPINARETVELPLEDSHQTNFKETKRNTDYDSIDFGDLNPIQYIKKHNLPTSDLPLISQIYFDKQREENRQAALRKHSSRELLYKSRSSSSSLSSNNLLANKDNSITSNNGSQPRRKVSTGSSSSKSSIEIRRALKENIDTSNNSNFNSPIHKIYKGISRNKDSDSEKREVLRNISINANHADNLLQQENKRLKRSLDDAITNENINSKNLEVFYHRPAPKPPVTKKVEIVEPAKSASLSNNRNIITVNDSQYEKIELLGRGGSSRVYKVKGSGNRVYALKRVSFDAFDDSSIDGFKGEIELLEKLKDQKRVIQLLDYEMGDGLLYLIMECGDHDLSQILNQRSGMPLDFNFVRFYTKEMLLCIKVVHDAGIVHSDLKPANFVLVKGILKIIDFGIANAVPEHTVNIYRETQIGTPNYMAPEALVAMNYTQNSENQHEGNKWKVGRPSDMWSCGCIIYQMIYGKPPYGSFQGQNRLLAIMNPDVKIPFPEHTSNNEKIPKSAIELMKACLYRNPDKRWTVDKVLSSTFLQPFMISGSIMEDLIRNAVRYGSEKPHISQDDLNDVVDTVLRKFADYKI
